Experimental data reported in PubChem BioAssay AID342 (DTP/NCI, 2004).
The list is a part of this screen's results and no random one: its compounds were picked by chemical class. Not every dose and run of a compound is shown. T/C: endpoint of the treated group in % of that of the vehicle group. Some entries show no survivor count and are marked so; the dose need not have been tolerated. Schedule codes are those of the source, taken here to give the interval after Q, in days (D) or hours (H), and the number of doses after X. Some schedules carry Z or #; the key to these is not given.

Tested on: Swiss mice, Sarcoma 180 sc, mean tumor weight T/C
Assay: NCI In Vivo Anticancer Drug Screen. Data for tumor model Sarcoma 180 (subcutaneous) in Swiss mice
Settings: T/C endpoint: mean tumor weight, schedule: Q#A X014 (ip), vehicle: carboxymethylcellulose (CMC), evaluation day not shown, higher T/C = larger tumour
Protocol: The antitumor activity of compounds was measured in mice bearing transplantable tumors. Survival or tumor size were measured and the results are expressed as the measurement made in the treated group (T) divided by the measurement made in the vehicle treated control group (C). The tumor model used in this assay is Sarcoma 180 (subcutaneous) in Swiss mice

CN(CCCl)CCCl
T/C (dose: 0.05 mg/kg/injection): 107 % of control [survivor count not shown]
T/C (dose: 0.1 mg/kg/injection): 100 % of control [survivor count not shown]
T/C (dose: 0.2 mg/kg/injection): 62 % of control [survivor count not shown]
T/C (dose: 0.4 mg/kg/injection): 55 % of control [survivor count not shown]
